± gives the standard deviation of the averaged measurements. Most values lie at the floor of the assay. Slopes are relative: functional sequences can read slightly below zero.
test system: Saccharomyces cerevisiae PS128 hsf1 delta, HSF1(1-493) fusion; assay: growth estimate (transactivation domain function in HSF1 fusion, heat-shock survival) (a.u. (slope of normalised read count over time)); higher = stronger growth at 37°C, i.e. more transactivation activity; settings: library: random library

Substance | growth estimate
LCSIYGTADCTAGGPQRMRL | < -0.25
LPLPGN | < -0.25
VTGL | < -0.25
VWRSTCRRGQGNGNVTA | < -0.25
VESATVLVGEFYVALPC | < -0.25
SHTSNVPNWREEVTGDCEIA | < -0.25
CRKVGYYRATDPRDPPRAVC | < -0.25
VEHMSRSGINLSLNGVC | < -0.25
HTSLDSYAKPFSLFIRRAFP | < -0.25
GTIGRQSLTGYF | < -0.25
YNGQSISVRGSLIN | < -0.25
SWSYLGAAGRRGN | < -0.25
TPTVLGDLRRGSNAVSLVRS | < -0.25
LHEPVRAGSP | < -0.25
TNRFIATSGSVRAPMAGPGV | < -0.25
YCNDWGETHLNIRYWLGNQP | -0.147
IPAEAARVRWPQKPLPMIGS | -0.246
INRPNYRL | < -0.25
KTACRTRGLGVRLEAAGSLQ | < -0.25
ISYAVSSGGEAPPA | < -0.25
ALSWYVTLSRAIMQRLGTCR | < -0.25
LGAS | < -0.25
SAMSRTELGLPGCQRV | < -0.25

Quoted at random: seven records from the list, in no set order.
Substance | growth estimate
TPTVLGDLRRGSNAVSLVRS | < -0.25
ALSWYVTLSRAIMQRLGTCR | < -0.25
GTIGRQSLTGYF | < -0.25
CRKVGYYRATDPRDPPRAVC | < -0.25
VTGL | < -0.25
HTSLDSYAKPFSLFIRRAFP | < -0.25
VEHMSRSGINLSLNGVC | < -0.25

(next part)

Substance | growth estimate
SQIILASKGSPEYR | < -0.25
QPVFTRQPSSRRRGHLNALR | -0.222
SNLAS | < -0.25
KGHNHGEVCSTHTGVTPSRA | < -0.25
PRFV | < -0.25
RLRVYYTRRQ | < -0.25
LFP | < -0.25
ETRTTMGCSYLLGIISDTAL | < -0.25
SRVCLCVRFAHWPVTASGGE | < -0.25
VMNH | < -0.25
GFETLIEGNNDTNGLLKGPS | < -0.25
WGLPSLECYLTPRSTTLAFR | < -0.25
RKRTGISLV | 0.101
CFFTSWLRRVLVVNPTFRPR | < -0.25
GSTTWSGNVYAMLRT | < -0.25
ILARRETM | < -0.25
TSIQRNWAPCHRAGNTKLKG | < -0.25
KPVTPIH | < -0.25
VRRDRRGHNERSVVELDALE | < -0.25
NMTN | < -0.25
FLSLYEGGS | < -0.25
FFCISHDLERT | < -0.25
YDSDSARIGQ | -0.246

Substance | growth estimate
LHT | < -0.25
RVHAIIARRGI | < -0.25
NKEVFPPLPDY | < -0.25
ECRSQLLVSSRSGLNAKL | < -0.25
AGLLRNSPSHFVASVLGLCP | < -0.25
MHQVTLTKSHQHDCRYPL | < -0.25
GQKIGISHIKPY | < -0.25
LET | < -0.25
CGEFLPFPRLVCMRDPQSYQ | < -0.25
FPWWNAVFSSAQTLRRYGGQ | < -0.25
IHRVKAAWSIKTARLSRQCS | < -0.25
VVKHTC | < -0.25
LEVGPAPASGLMGSYVPGAD | < -0.25
GVIARCSRGGGSLDDDTPNS | -0.25
MRG | < -0.25
RPYPGGRKTVICRLRGSRAT | < -0.25
LTANISQRSRFTKSSFLWGG | < -0.25
ISPGRGIASPLTLQVFAEPM | < -0.25
RPFR | < -0.25
FSCSSGPWSLLCTFSTCCHT | < -0.25
LRSTIYPDEFHSRLDRPTSG | < -0.25
SVRSIEVRRPRPCVLEMRGQ | < -0.25
TKPGSRPDKRPPRSTCAFFA | < -0.25

Single entries from above:
NKEVFPPLPDY – growth estimate: < -0.25
LEVGPAPASGLMGSYVPGAD – growth estimate: < -0.25
IHRVKAAWSIKTARLSRQCS – growth estimate: < -0.25

(continued)

Substance | growth estimate
RTSG | < -0.25
ASACWETYRS | -0.153
SLIGPLRS | < -0.25
GRVQSVCPYFREAGRRP | < -0.25
LAGSSRRQT | < -0.25
NGFETK | -0.245
PSRTLSLANCKTYEAVRPQI | < -0.25
PVLRDKWPGPLCVKSLSG | < -0.25
RYLCVGTCAREHRRSTLGR | < -0.25
STLGRTTGSHRLFT | < -0.25
IRCYFVGCPKGRGVEGGPCQ | < -0.25
WLTPAHE | < -0.25
PHFVN | < -0.25
WEGDKTL | < -0.25
AGI | < -0.25
VQVH | < -0.25
LRNQRSCEGTVQARCREVSH | < -0.25
VSIASAALVQYRQGYGRWVV | < -0.25
PQRLDEAALPDGRKR | < -0.25
HGLRLYRTWVRLFESCIFSK | < -0.25
RLFCDHLLMLRFWATDRGFE | < -0.25
AYSLFIVSPLSAKPVKAHML | < -0.25
LSRRGFASKFRVWEGGVTRW | < -0.25

Substance | growth estimate
EEIPPRNFNIVTITW | < -0.25
SFCWW | < -0.25
PGDTRVL | < -0.25
IGTEVCKCRRQS | < -0.25
HRVFTVLGTHTILGSKTSRC | -0.248
ITSGHAFGK | < -0.25
CVQ | < -0.25
FLVLSKRLTEAIDTNAVV | < -0.25
TMQPGQRRGFVRGVGAA | < -0.25
PAYKLTVVSASAAHKESLYS | < -0.25
LLPINLARIPSWVERGCSAR | < -0.25
HCKRYHKFHPGATAPPHGPS | < -0.25
HRGSAVQAERLKTPNAGSAQ | -0.246
RQTAAPCRFSPAKESRPICQ | < -0.25
TCCSKHRQP | < -0.25
MHHSVP | < -0.25
QLRLLCQASHKRPPARSVIL | < -0.25
LWVPDGGL | < -0.25
LLHAVRPIFVLHRTPLYAR | < -0.25
LNCRLGPEWKECSW | < -0.25
CVDKRQMRAKS | < -0.25
KFRITLG | < -0.25
DNTNVDYCTEEG | -0.245

Substance | growth estimate
GSPGTLGLDRKRTDPLRTIC | < -0.25
IVNAWGVLWRGRTRQAV | < -0.25
QSPRLVAS | < -0.25
GLRSMYLGNT | < -0.25
LSFCFGAIATGAPGGSPVVD | < -0.25
GAIEWGPMVWSPWQAR | < -0.25
YEHSAGSPAERQQRPVLPTA | < -0.25
RITFVLRAESPLLNN | < -0.25
LPRWV | < -0.25
QRAIVVSYQRMTGPGALDTD | < -0.25
ESFVNDLMSGLRFENLSSCA | < -0.25
EAGIKGVLWSRNRVTPPVEA | < -0.25
RRG | -0.2496 ± 0.00081
LDDPPKGNSQVASRVGAHWH | < -0.25
PGEFGVDLGCLFCSSTTRAL | < -0.25
IASGPRVGRAPLGSIVGPRP | < -0.25
PYLSFTGVCQSVGVEARRSG | < -0.25
YRSTSCGSVNWL | < -0.25
RYFMAACPFGRYLK | < -0.25
ITSRVLHSWHRTRRDPIGGV | < -0.25
SHEGCESTGLPQHAVFYLLA | < -0.25
WIRYSS | -0.21
TMEWSSPVK | < -0.25

Substance | growth estimate
ALRFNGETWVPRFTSPSSLR | < -0.25
YSSRAQESPRFTARTLGGIY | < -0.25
QACSMKTRLHVPD | < -0.25
VLKLRNAKARQFNPADRWRR | < -0.25
ISGSNNLRIVTKFFRQLVRS | < -0.25
LVPLLLWLPTMLGGNSNGPV | < -0.25
SNSGSEVHRKLTVILA | < -0.25
ERWNQLLLSCCQL | < -0.25
YWICQSDKFP | < -0.25
DKARVDPAARRQVFIQQMVW | < -0.25
RRGLD | < -0.25
PNHGQGVRPWHLRTWLNP | < -0.25
GDSGGHVHGKRAHWYLKQDL | < -0.25
DSTHWAISEF | < -0.25
ASSSK | < -0.25
TKLTPLEGRWPIFKMFQPFP | < -0.25
YGVRDHVVSHV | < -0.25
KSLWPLTAGW | < -0.25
KGPRSDIGAH | < -0.25
QVVDS | < -0.25
AMRRLGWQCRR | < -0.25

Reference: the supplement of paper PMC5949888
